Assay results: publication doi:10.1101/2023.10.06.561239 (bioRxiv, 2023)
Where a chain is given by its changes, count along the chain named. Results are given in words; binding and its absence hold for the method and conditions named. Binding seen in cells or lysates may run through a third protein. Some entries that bind do so weakly or less than the wild type. Sequences can lack the tags named with a protein.

Legend:
[1] = molecular target: T1, GST-tagged mouse BRCA2 fragment (I2327-Q2379), F2351D variant (mouse) (UniProt P97929); test: pull-down
T1 sequence: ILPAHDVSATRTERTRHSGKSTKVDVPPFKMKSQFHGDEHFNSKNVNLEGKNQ

[2] = molecular target: T2, GST-tagged mouse BRCA2 fragment (I2327-Q2379), corresponding to human F2s3 (mouse) (UniProt P97929); test: pull-down
T2 sequence: T1 sequence with D25F

binding [1]: no binding | binding [2]: binds
B1: mouse his-DMC1 (protein, UniProt Q61880 1-340)
chain: MKEDQVVQEESGFQDDEESLFQDIDLLQKHGINMADIKKLKSVGICTIKGIQMTTRRALCNVKGLSEAKVEKIKEAANKLIEPGFLTAFQYSERRKMVFHITTGSQEFDKLLGGGIESMAITEAFGEFRTGKTQLSHTLCVTAQLPGTGGYSGGKIIFIDTENTFRPDRLRDIADRFNVDHEAVLDNVLYARAYTSEHQMELLDYVAAKFHEEAGIFKLLIIDSIMALFRVDFSGRGELAERQQKLAQMLSRLQKISEEYNVAVFVTNQMTADPGATMTFQADPKKPIGGHILAHASTTRISLRKGRGELRIAKIYDSPEMPENEATFAITAGGIGDAKE
